The results are deposited in PubChem (AID1159506; NCATS, 2015).

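Genome-wide siRNA knockdown in TC32 Ewing sarcoma cells, comparing luciferase light from an NR0B1-promoter reporter with a CMV-promoter reporter 48 hours after transfection. Each siRNA was applied at 20 nM. A z-score of the log NR0B1-over-CMV signal, less the median of siRNAs with the same seed; more negative means a stronger specific loss of the NR0B1 reporter.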

This is part of the screen; most of the strongest results are not listed here. Sequences are the guide (antisense) strand, without overhang.

For AAUACUUACAUUCAUACGG against ZNF441 the result was seed-corrected z-score -0.4007.
For UUCCCUUUGUCCAACAUUC against SDHAF1 the result was seed-corrected z-score -0.1205.
For UUAGGAUACUUGAUGUGCA against SLC30A10 the result was seed-corrected z-score 0.1188.
For UUCACUAUCAGUCUUUAGC against ZC3H11B the result was seed-corrected z-score 0.1922.
For UAGCUUGUAUCAUAUGUUG against C11orf1 the result was seed-corrected z-score 0.07146.
For AAGUUCAUAGAAACGAUGC against KCNB2 the result was seed-corrected z-score 0.9159.
For UCAAUAAUCAGGCUGCGGC against CCS the result was seed-corrected z-score -0.04446.
For UCUUGGAUCUCUCGAACUC against UQCRQ the result was seed-corrected z-score 0.0905.
For UCUGAUUCCGCAGUUGUUC against GNB4 the result was seed-corrected z-score 0.07323.
For AAAAUGCAUUCCGCCUUCC against LOC727808 the result was seed-corrected z-score 0.6712.
For UUCGGCAAUAGCAGGUGGC against DEFA5 the result was seed-corrected z-score 1.206.
For UCUCGGCCGUCAGAUAUUC against HIST1H2AE the result was seed-corrected z-score -0.006083.
For UUUGGUGAGGCGUGGUUGC against TFDP3 the result was seed-corrected z-score -0.5419.
For ACCCGGAUAAGCAGUGUCG against NUP210P1 the result was seed-corrected z-score 0.4558.
For UACCUUUUCAGGCUGAGAG against BUB3 the result was seed-corrected z-score -1.218.
For AACCUUUGUACAGGUAGUG against FAM127B the result was seed-corrected z-score -0.5227.
For UCUGAUAAAGUUGAAACUG against RNF144B the result was seed-corrected z-score 0.6034.
For UUGCAUAACUUAGUGAACU against GJB3 the result was seed-corrected z-score 0.0265.
For UUGUGCAUCACUCCAACGG against PHLPP1 the result was seed-corrected z-score -0.5691.
For UCAGUAAUUUGGUCAGGUC against KRT24 the result was seed-corrected z-score 0.9875.
For UUCAUCUAAAUUCCGGUGC against FAM199X the result was seed-corrected z-score 0.5497.
For AAACGAGAAUGUUUCACUG against DENND2A the result was seed-corrected z-score 0.9801.
For AAAGAUGUUGCGACCCAGG against SYTL1 the result was seed-corrected z-score 0.04772.
For AAGGUGAGCAGAACCGUGG against OBSL1 the result was seed-corrected z-score 0.2894.
For UUGCUAGUCAUGUUUUUCC against EYA3 the result was seed-corrected z-score 0.2004.

Some entries from above, unchanged:

Sequence	gene	seed-corrected z-score
UACCUUUUCAGGCUGAGAG	BUB3	-1.218
UCAAUAAUCAGGCUGCGGC	CCS	-0.04446
AAAGAUGUUGCGACCCAGG	SYTL1	0.04772